Measured values as given in article PMC8299592.

By UniProt entry, the sequences of proteins in these tests, tags left out. Where a name states a change or a piece, a line headed by the entry shows the natural chain unless it says otherwise.
UniProt Q22CV9: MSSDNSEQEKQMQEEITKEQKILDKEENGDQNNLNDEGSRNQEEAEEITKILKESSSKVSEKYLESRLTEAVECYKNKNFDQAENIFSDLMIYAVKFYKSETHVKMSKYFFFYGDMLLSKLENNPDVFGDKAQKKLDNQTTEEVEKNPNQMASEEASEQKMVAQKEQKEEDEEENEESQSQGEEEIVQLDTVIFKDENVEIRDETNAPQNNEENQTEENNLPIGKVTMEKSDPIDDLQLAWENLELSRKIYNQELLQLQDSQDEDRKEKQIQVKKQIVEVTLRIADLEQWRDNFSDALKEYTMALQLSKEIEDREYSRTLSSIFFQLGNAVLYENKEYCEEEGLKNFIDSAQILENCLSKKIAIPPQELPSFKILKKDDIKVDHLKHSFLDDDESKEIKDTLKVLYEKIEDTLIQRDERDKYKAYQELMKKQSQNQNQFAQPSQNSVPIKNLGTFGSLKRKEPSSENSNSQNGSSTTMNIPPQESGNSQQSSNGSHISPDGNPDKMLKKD
UniProt Q22RG7: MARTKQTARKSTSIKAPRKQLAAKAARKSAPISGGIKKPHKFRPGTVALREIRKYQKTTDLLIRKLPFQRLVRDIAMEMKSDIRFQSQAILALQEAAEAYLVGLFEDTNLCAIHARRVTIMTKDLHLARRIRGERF
UniProt P41353: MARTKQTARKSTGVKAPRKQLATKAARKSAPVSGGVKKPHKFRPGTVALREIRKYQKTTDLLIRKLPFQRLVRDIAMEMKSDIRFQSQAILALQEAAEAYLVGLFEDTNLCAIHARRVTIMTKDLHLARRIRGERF
UniProt P69150: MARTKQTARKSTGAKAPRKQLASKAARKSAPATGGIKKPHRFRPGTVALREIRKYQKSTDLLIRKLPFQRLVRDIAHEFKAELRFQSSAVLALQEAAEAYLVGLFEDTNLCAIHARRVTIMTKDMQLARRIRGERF

What follows are molecules tested against Nrp1-HA (NASP-related protein 1, endogenously tagged) (Tetrahymena thermophila) (UniProt Q22CV9) (assay: affinity purification with mass spectrometry; Nrp1-HA captured on anti-HA agarose from clarified whole cell lysate of conjugating cells (2 h post-mixing), 4 °C overnight, washes with TBS plus 0.05% Tween-20; LC-MS/MS; proteins detected in WT data sets removed).

| Molecule | binding |
| --- | --- |
| histone H3.4 (from UniProt Q22RG7 1-136) | binds |
| histone H3.3 (from UniProt P41353 1-136) | binds |
| histone H3.1 (from UniProt P69150 1-136) | binds |
| histone H3.2 (from UniProt P69150 1-136) | binds |
| Rad51 (protein, UniProt O76341 1-331) MAEYAEDVEQSDGPMLIAKLEEHGINNADVKKLIDAGFQTVESISYTAKKNLLQIKGMTEAKIDKILDVAAKLVPNDFQTAAEYYVKRQSVINLTTGSTELDKLLGGGFETGSLTEIFGEFRTGKTQICHTLCITCQLPKEKGGGEGKAMYIDTEGTFRPERLESIAERFGLDPQECMENVAYARAFNCDQQNKLLVQAAALMAESKYALLIVDSATALYRTDYSGRGELSVRQNHLGKFLRNLQRLADEFGIAVVITNQVMSQVDGAAMFAGDMKKPIGGNIMAHASTTRLYLRKGRGESRICKIYDSPCLPESEAIYAIGKGGIEDFNE | binds |
| centromeric histone Cna1p (protein, UniProt Q2N2K6 1-187) MARKAYQPKRRSNSNQNQQRSDSLKKNKQDNLRSKSAGNQQGNEKNKKDIQDQRNKASTKKKRESSGEKYESARDKVIRRFRPGDNALKQLRQYNQTPSLLIRKLPFQRLIREISTRMTEEDSLRWTSFALVLLQTVVEDYMVSFFEDANACALHAKRVTLMSKDLALAARIRGQKNVTGIFIPTKK | no binding |

These are yes or no findings as the source states them, for the method shown. In cells and extracts the contact can be indirect. Here binding means that the protein was enriched with, or labelled near, the bait; the list need not be complete. No binding means not detected with the bait. Tags and fused reporters may be left off the sequences shown.
